Results reported in the supplement of paper PMC12067093, “Discovery and optimisation of a covalent ligand for TRIM25 and its application to targeted protein ubiquitination” (Chemical Science, 2025).
The list shows a part of the results.

The chains behind the UniProt entries cited, without tags or fusion partners. Where a name states a change or a piece, a line headed by the entry shows the natural chain unless it says otherwise.
UniProt Q9H160: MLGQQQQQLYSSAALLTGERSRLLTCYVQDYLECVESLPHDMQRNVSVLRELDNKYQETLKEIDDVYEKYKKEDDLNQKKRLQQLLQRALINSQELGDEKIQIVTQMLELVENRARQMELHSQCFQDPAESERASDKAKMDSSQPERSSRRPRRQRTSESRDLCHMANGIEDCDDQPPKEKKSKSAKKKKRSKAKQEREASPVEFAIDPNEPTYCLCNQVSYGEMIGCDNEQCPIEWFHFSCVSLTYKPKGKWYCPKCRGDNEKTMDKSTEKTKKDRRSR
UniProt P11717, whole entry, looked up: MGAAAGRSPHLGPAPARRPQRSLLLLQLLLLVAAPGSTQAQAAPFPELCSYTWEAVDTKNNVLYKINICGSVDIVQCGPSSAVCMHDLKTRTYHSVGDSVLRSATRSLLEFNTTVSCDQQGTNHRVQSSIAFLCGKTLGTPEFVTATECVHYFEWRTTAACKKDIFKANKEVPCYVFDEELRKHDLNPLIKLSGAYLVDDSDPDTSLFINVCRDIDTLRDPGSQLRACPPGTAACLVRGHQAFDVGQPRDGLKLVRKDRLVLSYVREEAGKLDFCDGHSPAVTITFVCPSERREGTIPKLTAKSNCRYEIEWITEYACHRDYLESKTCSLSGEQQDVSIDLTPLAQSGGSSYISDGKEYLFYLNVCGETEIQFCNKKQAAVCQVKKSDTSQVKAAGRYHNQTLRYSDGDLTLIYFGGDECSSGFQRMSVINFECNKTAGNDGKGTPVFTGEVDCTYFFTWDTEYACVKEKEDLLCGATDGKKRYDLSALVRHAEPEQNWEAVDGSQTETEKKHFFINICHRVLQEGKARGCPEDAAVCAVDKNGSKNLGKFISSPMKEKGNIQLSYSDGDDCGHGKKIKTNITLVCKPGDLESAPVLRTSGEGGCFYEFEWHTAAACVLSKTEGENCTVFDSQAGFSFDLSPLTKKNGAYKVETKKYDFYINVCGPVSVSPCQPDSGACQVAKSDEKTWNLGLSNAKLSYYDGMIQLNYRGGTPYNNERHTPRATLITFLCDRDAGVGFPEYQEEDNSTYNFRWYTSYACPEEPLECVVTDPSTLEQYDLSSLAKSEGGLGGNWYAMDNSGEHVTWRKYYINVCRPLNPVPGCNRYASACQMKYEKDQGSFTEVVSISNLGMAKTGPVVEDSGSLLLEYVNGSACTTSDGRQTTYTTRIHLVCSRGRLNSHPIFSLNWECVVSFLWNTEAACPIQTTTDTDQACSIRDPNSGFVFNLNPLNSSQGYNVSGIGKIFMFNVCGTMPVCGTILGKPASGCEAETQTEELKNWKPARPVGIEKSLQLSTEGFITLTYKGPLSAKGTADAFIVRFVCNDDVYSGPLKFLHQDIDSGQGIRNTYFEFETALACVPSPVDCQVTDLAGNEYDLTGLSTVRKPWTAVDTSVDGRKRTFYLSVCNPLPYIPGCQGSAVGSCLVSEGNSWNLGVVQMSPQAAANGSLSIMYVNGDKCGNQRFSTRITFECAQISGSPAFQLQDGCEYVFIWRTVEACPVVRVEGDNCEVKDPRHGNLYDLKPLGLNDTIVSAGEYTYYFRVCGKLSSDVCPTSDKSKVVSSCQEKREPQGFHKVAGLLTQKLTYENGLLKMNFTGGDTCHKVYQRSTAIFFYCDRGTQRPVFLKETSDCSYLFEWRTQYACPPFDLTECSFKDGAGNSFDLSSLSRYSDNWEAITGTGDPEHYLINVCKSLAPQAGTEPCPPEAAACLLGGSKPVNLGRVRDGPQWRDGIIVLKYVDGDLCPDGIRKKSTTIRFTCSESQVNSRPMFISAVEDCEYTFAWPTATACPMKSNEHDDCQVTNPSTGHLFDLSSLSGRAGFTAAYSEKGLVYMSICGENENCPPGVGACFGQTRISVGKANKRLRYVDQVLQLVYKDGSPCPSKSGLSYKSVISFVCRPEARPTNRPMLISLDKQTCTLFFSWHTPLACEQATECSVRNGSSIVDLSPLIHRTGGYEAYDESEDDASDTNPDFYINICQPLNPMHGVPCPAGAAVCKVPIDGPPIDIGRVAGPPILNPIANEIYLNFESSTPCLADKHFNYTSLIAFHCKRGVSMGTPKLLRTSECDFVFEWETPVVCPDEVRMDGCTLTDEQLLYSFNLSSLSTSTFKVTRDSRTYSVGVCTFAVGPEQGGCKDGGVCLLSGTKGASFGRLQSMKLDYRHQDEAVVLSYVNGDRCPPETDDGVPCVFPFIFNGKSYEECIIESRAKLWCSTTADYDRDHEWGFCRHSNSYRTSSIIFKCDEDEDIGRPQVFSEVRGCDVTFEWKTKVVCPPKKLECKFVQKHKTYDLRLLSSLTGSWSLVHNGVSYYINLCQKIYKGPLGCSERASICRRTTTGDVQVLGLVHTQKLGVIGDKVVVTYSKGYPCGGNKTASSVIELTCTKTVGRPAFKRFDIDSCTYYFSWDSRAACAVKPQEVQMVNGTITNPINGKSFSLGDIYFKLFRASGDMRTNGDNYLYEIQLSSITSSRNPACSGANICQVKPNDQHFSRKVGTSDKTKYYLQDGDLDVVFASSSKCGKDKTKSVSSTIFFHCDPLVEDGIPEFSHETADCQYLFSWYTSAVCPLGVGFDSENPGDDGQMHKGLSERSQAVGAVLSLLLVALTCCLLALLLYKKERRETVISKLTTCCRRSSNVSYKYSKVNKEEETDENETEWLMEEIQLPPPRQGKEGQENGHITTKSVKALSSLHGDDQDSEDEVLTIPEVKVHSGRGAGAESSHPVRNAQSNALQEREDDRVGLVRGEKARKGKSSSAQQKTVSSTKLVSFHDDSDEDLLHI
UniProt Q9HBG6: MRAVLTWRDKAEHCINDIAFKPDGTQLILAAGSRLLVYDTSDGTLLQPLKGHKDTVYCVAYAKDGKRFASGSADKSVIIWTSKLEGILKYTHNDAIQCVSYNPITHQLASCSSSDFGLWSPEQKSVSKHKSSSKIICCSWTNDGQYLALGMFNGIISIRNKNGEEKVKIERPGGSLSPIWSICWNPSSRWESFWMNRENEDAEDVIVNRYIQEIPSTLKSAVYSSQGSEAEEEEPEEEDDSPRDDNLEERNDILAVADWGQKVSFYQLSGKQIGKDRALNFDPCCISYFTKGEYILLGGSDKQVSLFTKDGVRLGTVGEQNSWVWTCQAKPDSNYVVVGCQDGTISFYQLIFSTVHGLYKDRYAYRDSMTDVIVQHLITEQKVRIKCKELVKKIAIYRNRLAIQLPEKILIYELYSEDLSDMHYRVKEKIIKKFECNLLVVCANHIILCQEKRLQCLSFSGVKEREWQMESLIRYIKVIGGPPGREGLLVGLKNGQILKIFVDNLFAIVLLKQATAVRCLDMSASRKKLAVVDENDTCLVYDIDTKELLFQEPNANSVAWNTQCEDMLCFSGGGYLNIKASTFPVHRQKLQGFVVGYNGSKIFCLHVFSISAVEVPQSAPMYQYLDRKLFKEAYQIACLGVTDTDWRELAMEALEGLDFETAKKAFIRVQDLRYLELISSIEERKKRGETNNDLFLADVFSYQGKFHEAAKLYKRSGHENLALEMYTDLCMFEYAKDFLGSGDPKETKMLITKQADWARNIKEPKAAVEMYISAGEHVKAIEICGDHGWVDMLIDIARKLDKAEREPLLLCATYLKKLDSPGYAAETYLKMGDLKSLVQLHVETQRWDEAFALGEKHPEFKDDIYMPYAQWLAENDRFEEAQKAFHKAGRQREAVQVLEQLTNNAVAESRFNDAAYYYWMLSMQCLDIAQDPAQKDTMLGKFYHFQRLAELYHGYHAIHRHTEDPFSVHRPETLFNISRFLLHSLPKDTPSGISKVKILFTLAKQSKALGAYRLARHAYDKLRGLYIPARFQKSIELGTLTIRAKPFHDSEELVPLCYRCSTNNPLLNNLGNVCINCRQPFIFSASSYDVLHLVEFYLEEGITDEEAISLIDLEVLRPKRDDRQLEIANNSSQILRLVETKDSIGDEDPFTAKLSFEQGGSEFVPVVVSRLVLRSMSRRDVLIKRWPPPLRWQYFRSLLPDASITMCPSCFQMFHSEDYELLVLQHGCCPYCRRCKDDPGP
UniProt Q96F46, whole entry, looked up: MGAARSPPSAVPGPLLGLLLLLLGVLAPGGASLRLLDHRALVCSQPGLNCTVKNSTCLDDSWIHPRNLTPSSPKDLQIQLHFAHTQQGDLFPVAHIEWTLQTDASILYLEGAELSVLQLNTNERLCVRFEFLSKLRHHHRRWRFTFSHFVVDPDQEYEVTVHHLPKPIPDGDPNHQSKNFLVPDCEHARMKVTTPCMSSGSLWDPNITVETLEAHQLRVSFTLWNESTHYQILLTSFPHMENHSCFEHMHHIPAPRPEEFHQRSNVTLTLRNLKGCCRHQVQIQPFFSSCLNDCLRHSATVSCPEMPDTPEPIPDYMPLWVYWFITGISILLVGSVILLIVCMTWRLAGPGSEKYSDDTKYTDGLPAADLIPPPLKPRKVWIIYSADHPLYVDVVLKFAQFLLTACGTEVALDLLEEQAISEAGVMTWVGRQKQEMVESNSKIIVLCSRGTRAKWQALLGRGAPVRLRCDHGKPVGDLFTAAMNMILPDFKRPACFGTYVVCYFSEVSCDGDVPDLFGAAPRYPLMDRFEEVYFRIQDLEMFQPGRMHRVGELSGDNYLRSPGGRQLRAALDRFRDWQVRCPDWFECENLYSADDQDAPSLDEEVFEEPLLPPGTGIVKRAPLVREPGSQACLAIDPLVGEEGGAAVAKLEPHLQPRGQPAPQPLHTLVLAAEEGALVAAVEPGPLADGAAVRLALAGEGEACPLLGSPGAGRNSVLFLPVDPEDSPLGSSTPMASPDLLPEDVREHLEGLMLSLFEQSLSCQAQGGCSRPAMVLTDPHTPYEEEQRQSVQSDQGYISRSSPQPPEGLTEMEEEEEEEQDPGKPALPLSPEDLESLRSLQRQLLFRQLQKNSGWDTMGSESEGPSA
UniProt Q9NSE4: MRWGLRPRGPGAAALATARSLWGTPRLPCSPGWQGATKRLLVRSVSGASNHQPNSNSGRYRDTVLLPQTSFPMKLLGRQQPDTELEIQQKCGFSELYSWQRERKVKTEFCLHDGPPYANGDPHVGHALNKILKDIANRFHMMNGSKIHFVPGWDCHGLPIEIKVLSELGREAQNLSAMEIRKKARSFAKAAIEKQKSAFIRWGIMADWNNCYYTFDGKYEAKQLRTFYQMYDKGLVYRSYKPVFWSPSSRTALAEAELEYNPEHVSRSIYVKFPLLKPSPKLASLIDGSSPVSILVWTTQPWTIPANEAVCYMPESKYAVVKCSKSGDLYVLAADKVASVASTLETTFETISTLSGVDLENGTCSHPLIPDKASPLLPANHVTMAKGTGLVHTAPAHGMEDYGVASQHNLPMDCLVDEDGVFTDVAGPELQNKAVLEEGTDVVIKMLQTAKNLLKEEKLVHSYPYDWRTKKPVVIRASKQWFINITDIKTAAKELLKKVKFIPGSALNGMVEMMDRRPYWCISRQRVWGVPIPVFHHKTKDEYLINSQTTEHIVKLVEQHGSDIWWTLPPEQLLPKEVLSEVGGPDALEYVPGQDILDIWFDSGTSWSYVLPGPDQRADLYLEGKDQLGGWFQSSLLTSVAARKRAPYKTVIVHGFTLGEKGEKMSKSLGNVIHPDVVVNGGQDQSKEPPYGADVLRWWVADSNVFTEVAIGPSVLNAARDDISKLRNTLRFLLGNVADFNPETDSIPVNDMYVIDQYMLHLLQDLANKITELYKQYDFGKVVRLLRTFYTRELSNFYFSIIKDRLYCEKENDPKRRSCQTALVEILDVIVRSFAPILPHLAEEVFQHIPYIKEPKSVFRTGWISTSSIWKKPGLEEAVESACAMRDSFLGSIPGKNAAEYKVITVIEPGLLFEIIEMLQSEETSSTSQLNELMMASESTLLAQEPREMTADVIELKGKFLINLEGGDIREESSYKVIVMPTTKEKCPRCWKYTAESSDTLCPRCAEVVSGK
UniProt A1L0T0: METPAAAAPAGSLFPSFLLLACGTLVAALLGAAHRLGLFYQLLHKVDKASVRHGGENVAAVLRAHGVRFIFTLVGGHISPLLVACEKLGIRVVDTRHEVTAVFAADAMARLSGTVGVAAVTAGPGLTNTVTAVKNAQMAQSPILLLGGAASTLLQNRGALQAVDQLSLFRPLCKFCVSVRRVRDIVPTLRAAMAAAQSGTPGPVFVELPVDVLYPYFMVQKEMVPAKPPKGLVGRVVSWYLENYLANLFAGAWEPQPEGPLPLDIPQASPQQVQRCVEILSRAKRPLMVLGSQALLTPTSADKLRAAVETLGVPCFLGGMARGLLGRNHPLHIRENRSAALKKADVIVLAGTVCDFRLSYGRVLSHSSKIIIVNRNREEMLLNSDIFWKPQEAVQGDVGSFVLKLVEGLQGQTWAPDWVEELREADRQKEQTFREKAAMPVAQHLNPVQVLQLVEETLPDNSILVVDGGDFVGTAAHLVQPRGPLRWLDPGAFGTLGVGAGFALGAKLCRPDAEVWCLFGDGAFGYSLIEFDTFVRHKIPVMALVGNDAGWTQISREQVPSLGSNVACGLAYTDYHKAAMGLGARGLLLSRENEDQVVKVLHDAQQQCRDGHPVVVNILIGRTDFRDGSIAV

Compound: CC1Cc2ccccc2N1C(=O)C1CCCN(C1)C(=O)CCl (mixture of isomers) [TRIM25 ligand 11 (diastereomer mixture)]
Experiment: probe-labelled cysteine peptide fold change vs DMSO (competition) (log2 fold change); higher = less target engagement (more negative = stronger competition)
Details: THP-1, incubation time: 4 h
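Also: competitive chemoproteomic profiling in live THP-1 cells with an iodoacetamide desthiobiotin (IA-DTB) probe, comparing probe-labelled peptide intensities in compound-treated cells against DMSO-treated controls.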

ING2_Q9H160_34_LLTCYVQDYLECVESLPHDMQR (UniProt Q9H160)
probe-labelled cysteine peptide fold change (10 µM): -0.0647
probe-labelled cysteine peptide fold change (50 µM): -0.31

IGF2R_P11717_823_YYINVCRPLNPVPGCNR (UniProt P11717)
probe-labelled cysteine peptide fold change (10 µM): -0.0696
probe-labelled cysteine peptide fold change (50 µM): -0.0213

IFT122_Q9HBG6_784_AIEICGDHGWVDMLIDIAR (UniProt Q9HBG6)
probe-labelled cysteine peptide fold change (10 µM): 0.194
probe-labelled cysteine peptide fold change (50 µM): -0.133

IGF2R_P11717_174_EVPCYVFDEELR (UniProt P11717)
probe-labelled cysteine peptide fold change (10 µM): 0.0645
probe-labelled cysteine peptide fold change (50 µM): 0.101

IKBKG_Q9Y6K9_54_CLEENQELR (UniProt Q9Y6K9)
probe-labelled cysteine peptide fold change (10 µM): -0.00175
probe-labelled cysteine peptide fold change (50 µM): -0.0833

IARS_P41252_185_VMPFSTACNTPLSNFESHQNYK (UniProt P41252)
probe-labelled cysteine peptide fold change (10 µM): 0.15
probe-labelled cysteine peptide fold change (50 µM): -0.0105

ILF2_Q12905_311_VHTVMTLEQQDMVCYTAQTLVR (UniProt Q12905)
probe-labelled cysteine peptide fold change (10 µM): 0.242
probe-labelled cysteine peptide fold change (50 µM): -0.0569

IL17RA_Q96F46_632_EPGSQACLAIDPLVGEEGGAAVAK (UniProt Q96F46)
probe-labelled cysteine peptide fold change (10 µM): 0.193
probe-labelled cysteine peptide fold change (50 µM): -0.0404

HUWE1_Q7Z6Z7_2721_DQSAQCTASK (UniProt Q7Z6Z7)
probe-labelled cysteine peptide fold change (10 µM): 0.0453
probe-labelled cysteine peptide fold change (50 µM): -0.165

IDUA_P35475_241_HCHDGTNFFTGEAGVR (UniProt P35475)
probe-labelled cysteine peptide fold change (10 µM): 0.149
probe-labelled cysteine peptide fold change (50 µM): -0.0722

IARS2_Q9NSE4_1005_CAEVVSGK (UniProt Q9NSE4)
probe-labelled cysteine peptide fold change (10 µM): -0.0191
probe-labelled cysteine peptide fold change (50 µM): 0.042

ILVBL_A1L0T0_173_GALQAVDQLSLFRPLCK (UniProt A1L0T0)
probe-labelled cysteine peptide fold change (10 µM): -0.0393
probe-labelled cysteine peptide fold change (50 µM): -0.0788

IFIH1_Q9BYX4_138_CMEEELLTIEDR (UniProt Q9BYX4)
probe-labelled cysteine peptide fold change (10 µM): -0.00673
probe-labelled cysteine peptide fold change (50 µM): -0.191

IGF2R_P11717_84_INICGSVDIVQCGPSSAVCMHDLK (UniProt P11717)
probe-labelled cysteine peptide fold change (10 µM): -0.056
probe-labelled cysteine peptide fold change (50 µM): -0.148
